Results published in publication PMC6182170.
Substitutions are numbered along the chain they refer to. These are yes or no findings as the source states them, for the method shown. In cells and extracts the contact can be indirect. Some results given as binding are weak or reduced against the parent protein; the word gives no strength. Sequences can lack the tags named with a protein.

The chains behind the UniProt entries cited, without tags or fusion partners.
UniProt Q22618: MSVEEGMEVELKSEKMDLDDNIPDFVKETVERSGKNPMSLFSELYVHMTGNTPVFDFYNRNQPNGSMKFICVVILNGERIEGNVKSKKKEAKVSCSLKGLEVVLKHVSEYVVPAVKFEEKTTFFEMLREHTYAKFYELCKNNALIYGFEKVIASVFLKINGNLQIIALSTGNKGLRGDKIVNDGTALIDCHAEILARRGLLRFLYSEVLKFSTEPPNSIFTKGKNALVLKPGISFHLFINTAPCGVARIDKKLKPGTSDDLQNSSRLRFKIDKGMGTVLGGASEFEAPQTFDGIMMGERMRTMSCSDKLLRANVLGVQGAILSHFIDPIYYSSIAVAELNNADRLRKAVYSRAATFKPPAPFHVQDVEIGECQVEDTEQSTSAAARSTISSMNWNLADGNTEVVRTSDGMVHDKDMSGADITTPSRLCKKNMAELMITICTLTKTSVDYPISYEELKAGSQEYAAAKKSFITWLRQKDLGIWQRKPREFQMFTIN

Key:
[1] = target: T1, 3XFLAG-ADR-1 (wild type), expressed from the genomic adr-1 transgene in worms (C. elegans) (UniProt Q9U3D6); experiment: co-IP; in vivo co-IP: worm lysates (no UV crosslinking) incubated with anti-FLAG magnetic beads to precipitate 3XFLAG-ADR-1; washed with RIP wash buffer; immunoblot with FLAG and ADR-2 (PA6496) antibodies
T1 sequence: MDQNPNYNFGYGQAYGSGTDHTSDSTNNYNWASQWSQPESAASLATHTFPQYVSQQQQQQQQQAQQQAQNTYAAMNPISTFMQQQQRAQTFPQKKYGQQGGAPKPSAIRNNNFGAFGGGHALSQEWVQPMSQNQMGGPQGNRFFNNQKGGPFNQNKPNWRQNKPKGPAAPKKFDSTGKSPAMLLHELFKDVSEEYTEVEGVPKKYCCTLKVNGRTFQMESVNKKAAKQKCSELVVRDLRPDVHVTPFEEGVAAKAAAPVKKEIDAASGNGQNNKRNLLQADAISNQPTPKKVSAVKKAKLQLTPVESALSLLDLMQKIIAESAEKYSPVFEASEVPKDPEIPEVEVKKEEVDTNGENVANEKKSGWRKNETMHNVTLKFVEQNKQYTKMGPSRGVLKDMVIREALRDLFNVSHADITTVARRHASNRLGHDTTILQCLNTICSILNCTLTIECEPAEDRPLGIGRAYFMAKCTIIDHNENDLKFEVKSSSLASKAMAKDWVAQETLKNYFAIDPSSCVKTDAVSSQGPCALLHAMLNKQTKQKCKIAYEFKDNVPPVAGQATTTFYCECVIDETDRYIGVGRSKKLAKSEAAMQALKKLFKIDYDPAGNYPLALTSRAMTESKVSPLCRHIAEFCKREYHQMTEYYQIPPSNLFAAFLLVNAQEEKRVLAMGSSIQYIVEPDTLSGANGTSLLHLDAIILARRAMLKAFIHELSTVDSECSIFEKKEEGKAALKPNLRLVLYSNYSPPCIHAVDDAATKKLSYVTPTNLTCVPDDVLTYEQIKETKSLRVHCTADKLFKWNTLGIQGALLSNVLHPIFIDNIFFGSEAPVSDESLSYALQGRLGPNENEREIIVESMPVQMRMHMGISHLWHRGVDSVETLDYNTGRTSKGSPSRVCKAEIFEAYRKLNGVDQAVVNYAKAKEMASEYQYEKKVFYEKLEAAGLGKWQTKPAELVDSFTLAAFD

[2] = target: T2, 3XFLAG-ADR-1 dsRBD1 mutant (K223E, K224A, K227A), expressed in worms (C. elegans) (UniProt Q9U3D6); experiment: as above
T2 sequence: T1 sequence with K223E, K224A, K227A

binding [1]: binds | binding [2]: binds
Substance: ADR-2, endogenous in worm lysate (from UniProt Q22618 1-495) (enzyme)
